According to article PMC11181667:
These are yes or no findings as the source states them, for the method shown. In cells and extracts the contact can be indirect. Some entries that bind do so weakly or less than the wild type.

Chains of the proteins cited; added tags and fusions are not shown.
UniProt Q13546: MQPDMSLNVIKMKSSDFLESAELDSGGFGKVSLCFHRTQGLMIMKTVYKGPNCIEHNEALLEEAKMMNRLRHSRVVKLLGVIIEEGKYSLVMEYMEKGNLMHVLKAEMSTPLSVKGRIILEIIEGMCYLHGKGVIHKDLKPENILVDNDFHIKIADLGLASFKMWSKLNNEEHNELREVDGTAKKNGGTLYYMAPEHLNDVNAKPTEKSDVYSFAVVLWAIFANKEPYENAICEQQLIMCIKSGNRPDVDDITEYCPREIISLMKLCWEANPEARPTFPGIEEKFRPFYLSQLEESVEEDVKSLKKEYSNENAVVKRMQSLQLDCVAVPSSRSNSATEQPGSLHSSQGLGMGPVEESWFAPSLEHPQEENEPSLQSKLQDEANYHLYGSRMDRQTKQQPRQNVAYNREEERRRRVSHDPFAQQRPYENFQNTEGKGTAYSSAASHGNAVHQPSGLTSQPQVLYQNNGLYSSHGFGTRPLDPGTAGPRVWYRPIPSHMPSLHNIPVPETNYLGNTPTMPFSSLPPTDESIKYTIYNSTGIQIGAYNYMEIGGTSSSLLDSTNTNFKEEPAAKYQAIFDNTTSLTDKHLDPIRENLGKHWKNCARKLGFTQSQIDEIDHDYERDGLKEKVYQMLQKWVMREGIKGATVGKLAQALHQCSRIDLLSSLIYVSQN

What was measured:
[1] = target: T1, OTUD6B (exogenous) (UniProt Q8N6M0); assay: co-IP; exogenous proteins, two-way; Western blot; tags and cells not given
T1 sequence: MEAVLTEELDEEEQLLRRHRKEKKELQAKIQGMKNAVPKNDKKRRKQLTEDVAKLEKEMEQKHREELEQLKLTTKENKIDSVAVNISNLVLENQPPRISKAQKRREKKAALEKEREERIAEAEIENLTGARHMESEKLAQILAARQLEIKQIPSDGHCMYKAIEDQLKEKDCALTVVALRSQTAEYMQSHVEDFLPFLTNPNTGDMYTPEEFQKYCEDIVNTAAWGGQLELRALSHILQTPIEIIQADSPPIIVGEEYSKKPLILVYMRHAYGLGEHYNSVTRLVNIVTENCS

[2] = target: T2, OTUD6B (human (endogenous in LUAD cell lines)) (UniProt Q8N6M0); assay: proximity ligation; in situ proximity ligation assay (PLA), said to be combined with fluorescence in situ hybridization (FISH), in cells
T2 sequence: T1 sequence

[3] = target: T2, OTUD6B (human (endogenous in LUAD cell lines)); assay: co-IP; endogenous proteins, two-way; cell lysates in NP-40 lysis buffer, rabbit anti-OTUD6B or rabbit anti-RIPK1 antibody with protein G agarose at 4 °C overnight, Western blot

binding [1]	binding [2]	binding [3]	Substance
binds	–	–	RIPK1 (exogenous) (from UniProt Q13546 1-671) (enzyme)
–	binds	binds	Receptor interacting serine/threonine kinase 1 (RIPK1) (from UniProt Q13546 1-671) (enzyme)
